# About 7,700 (2.3%) of roughly 330,000 compounds were called active. The shares of active, inactive and inconclusive entries below differ from those in the screen. Calls come from the whole dose curve; as a rule, active = well fitted inhibition curve with a large enough effect; inconclusive = small, poorly fitted or top-dose-only effect, or effect the other way; inactive = flat fitted curve, though single readings scatter. A potency beside an inconclusive call is a rough fit, not a confirmed value.
# Assay: qHTS screen for small molecules that inhibit ELG1-dependent DNA repair in human embryonic kidney (HEK293T) cells expressing luciferase-tagged ELG1; note: nearly all actives have a fitted effect of over 55% in size
# Conditions: HEK293T ELG1-luciferase reporter, luminescence, 16 h, DNA damage induced by 5-fluorouridine; series mostly up to 46.1 µM
# In short: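 Overnight (16 hr) co-exposure of 2,000 cells/well to 5-fluorouridine and compound at 37 °C preceded detection. Luciferase was quantified via ONE-Glo luminescence; loss of signal denotes inhibition.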
# Potency is the fitted concentration of half-maximal effect.
row,Compound,Potency
1,O=C(Nc1ccncc1)c1cccc2ccccc12,"inconclusive: 18.3 µM [inhibitor, partial curve]"
2,C=CCN1C(=O)/C(=C/c2ccc(O)cc2)S/C1=N/c1nccs1,inactive
3,CCOC(=O)[C@@H]1[C@H]2COc3cc(OC)ccc3[C@@H]2N2C(=O)N(c3cccc(Cl)c3)C(=O)[C@@]12C,inactive
4,O=C(c1ccc([N+](=O)[O-])cc1)N1CCC(Cc2ccccc2)CC1,"inconclusive: 23.1 µM [inhibitor, single point]"
5,COCCNC(=O)c1ccc(N2CC3CC(C2)c2cccc(=O)n2C3)c(NC(=O)c2ccc(F)cc2)c1 (stereo unspecified),"inconclusive: 29.1 µM [activator, partial curve, poor fit]"
6,COc1ccc(/C=C/C(=O)c2ccc(C(=O)/C=C/c3ccc(OC)c(OC)c3)cc2)cc1OC,"inconclusive: 2.91 µM [inhibitor, single point]"
7,C(=N\N=C\c1ccccc1)/c1ccccc1,"inconclusive: 23.1 µM [activator, partial curve, poor fit]"
8,COc1ccc(C2=NN(C(=O)c3ccccc3)C(c3ccc(OC)c(OC)c3)C2)cc1OC (stereo unspecified),inactive
9,Cc1cc(C)c(C#N)c(SCC(=O)Nc2ccc3c(c2)OCO3)n1,"inconclusive: 20.6 µM [activator, partial curve]"
10,COc1c(C)cccc1C(=O)NCc1ccc2c(c1)OCO2,inactive
11,O=C(CC1CCCCC1)Nc1nc2ccccc2s1,"inconclusive: 8.2 µM [activator, partial curve]"
12,Cc1csc2nc(CNC(=O)c3ccco3)cn12,"inconclusive: 11.6 µM [activator, partial curve]"
13,CCCn1c2ccccc2c2nc3ccccc3nc21,inactive
14,c1cncc(-c2nc(NCc3cccs3)c3ccccc3n2)c1,"inconclusive: 29.1 µM [inhibitor, single point]"
15,O=C1CC[C@@H](CN(Cc2ccccn2)Cc2nc(Cc3ccccc3)no2)N1,inactive
16,CCC(Cc1ccccc1)NS(=O)(=O)c1c(C)nc2scc(C)n2c1=O (stereo unspecified),inactive
17,O=C(Nc1ccn(Cc2c(F)c(F)cc(F)c2F)n1)c1ccc(COc2cc(Cl)ccc2Cl)o1,"inconclusive: 20.6 µM [inhibitor, partial curve]"
18,Cc1cccc(NC(=S)N2CCN(S(=O)(=O)c3cccc(F)c3)CC2)c1,inactive
19,COCCC1CCCCN1C(=O)c1cc(COc2ccc(-n3cncn3)cc2)on1 (stereo unspecified),"inconclusive: 2.06 µM [inhibitor, partial curve, poor fit]"
20,Cc1ccc(C(=O)Nc2ccc3c(c2)nc2n3CCSC2)cc1,"inconclusive: 2.31 µM [activator, partial curve, poor fit]"
21,CCN(C(=O)c1ccc2c(c1)OCO2)C1CCS(=O)(=O)C1 (stereo unspecified),"inconclusive: 20.6 µM [activator, single point]"
22,C/C(=N\N1C(=O)c2ccccc2NC1c1ccccc1)c1ccccc1O (stereo unspecified),"inconclusive: 2.06 µM [activator, partial curve]"
23,COc1ccc(C(=O)N2CCN(c3ccccn3)CC2)cc1[N+](=O)[O-],"inconclusive: 20.6 µM [inhibitor, single point]"
24,O=C(NCCC1=CCCCC1)c1ccc(Cl)c(S(=O)(=O)N2CCCCC2)c1,inactive

row,Compound,Potency
1,CN=C1SC(CC(=O)Nc2ccc(F)cc2F)C(=O)N1/N=C/c1ccc(OC(F)F)c(OC)c1 (stereo unspecified),"inconclusive: 6.51 µM [inhibitor, single point]"
2,Cc1ccc(-c2nnc(N3CCN(C(=O)CN4CCOCC4)CC3)c3ccccc23)cc1,inactive
3,O=C(COC(=O)CCS(=O)(=O)c1ccccc1)Nc1ccc(N2CCCCC2)cc1,"inconclusive: 20.6 µM [activator, partial curve, poor fit]"
4,C=CCn1c(SCC(=O)NC2CC2)nnc1C1CC1,inactive
5,CCOc1ccc(OCC)c(-c2c(=O)n(OCc3ccccc3Br)c3ccccc3[n+]2[O-])c1,"inconclusive: 16.4 µM [inhibitor, single point]"
6,CO/N=C/c1ccc(N2CCN(C(=O)c3ccc(C)cc3)CC2)c([N+](=O)[O-])c1,active: 20.6 µM
7,O=C(CN1CCCC1)Nc1ccc(Cl)cc1C(F)(F)F,inactive
8,CCOC(=O)C1CCN(c2cc3c(cc2NC(=O)c2ccc(F)cc2)n(C)c(=O)n3C)CC1,active: 2.31 µM
9,NC(=O)c1nsc(C(=O)N(Cc2ccco2)C(C(=O)NC2CCCC2)c2ccc(O)cc2)c1N (stereo unspecified),inactive
10,CN1CCN(CC(=O)N/N=C\c2c[nH]c3ccccc23)CC1,"inconclusive: 29.1 µM [activator, partial curve, poor fit]"
11,CCN(c1ccc(NC(=O)COC(=O)/C=C/c2cccs2)cc1)C(C)C,inactive
12,CCn1nc(NS(=O)(=O)c2ccccc2)c2cc3cccc(C)c3nc21,inactive
13,COC(=O)c1ccc(C(=O)OC)c(NC(=O)CN(c2ccccc2)S(=O)(=O)N(C)C)c1,inactive
14,COCc1ccc(C(=O)N2CCCC(C(=O)c3ccc(SC)cc3)C2)o1 (stereo unspecified),inactive
15,COc1ccc(C(=O)N2CCN(c3nc4cc(C)ccc4cc3C#N)CC2)c(OC)c1,"inconclusive: 20.6 µM [inhibitor, partial curve]"
16,COc1ccc(OC)c(S(=O)(=O)n2cnc3ccccc32)c1,"inconclusive: 2.91 µM [inhibitor, full curve]"
17,CCc1ccc(NC(=O)c2nc(S(=O)(=O)Cc3ccccc3)ncc2Cl)cc1,"inconclusive: 29.1 µM [inhibitor, single point]"
18,O=C(CSc1nnc(COc2ccc(Br)cc2)o1)N1CCOCC1,"inconclusive: 16.4 µM [inhibitor, single point]"
19,CC1=NOC2(C1)N(C)c1ccccc1C2(C)C (stereo unspecified),inactive
20,CCNC(=O)c1sc2cc(C)ccc2c1Cl,"inconclusive: 16.4 µM [activator, partial curve]"
21,CCOc1ccccc1CNC(=O)C1CCCN(c2nnc(C)c3c(C)n(-c4ccccc4)nc23)C1 (stereo unspecified),"inconclusive: 20.6 µM [inhibitor, single point]"
22,CC(=O)NC(=S)Nc1ccc(S(=O)(=O)Nc2ncccn2)cc1,"inconclusive: 0.231 µM [inhibitor, partial curve, poor fit]"
23,Cc1ccccc1NC(=O)C1CC(=O)OC12CCOC(C)(C)C2 (stereo unspecified),"inconclusive: 29.1 µM [inhibitor, partial curve, poor fit]"
24,CCOC(=O)c1[nH]c2cc(OC)c(OC)cc2c1NC(=O)C(C)N1CCN(Cc2ccccc2)CC1 (stereo unspecified),active: 9.2 µM

row,Compound,Potency
1,O=C(Nc1nc(-c2nc3ccccc3s2)cs1)C1CC1,"inconclusive: 2.59 µM [activator, partial curve]"
2,O=C(Cc1cccc2ccccc12)Nc1c(F)cccc1F,"inconclusive: 23.1 µM [activator, partial curve]"
3,COc1cc2c(cc1OC)C(c1ccc(Br)cc1)N(C(=O)c1ccccc1C(=O)O)CC2 (stereo unspecified),"inconclusive: 3.98 µM [inhibitor, single point]"
4,COc1cccc(NC(=O)C2CCCN2C(=O)Nc2ccccc2F)c1 (stereo unspecified),"inconclusive: 4.11 µM [activator, partial curve, poor fit]"
5,O=C(c1cc2cc(Br)ccc2[nH]1)N1CCc2ccccc21,inactive
6,N#Cc1cccc2cnccc12,"inconclusive: 20.6 µM [inhibitor, partial curve]"
7,O=Cc1cn(-c2ccccc2)nc1-c1ccc2c(c1)OCCO2,"inconclusive: 3.66 µM [activator, partial curve, poor fit]"
8,COc1ccc(/C=C/C(=O)Nc2ccc(-n3nncc3-c3ccc(OC)c(OC)c3)cc2)cc1OC,"inconclusive: 5.17 µM [inhibitor, partial curve]"
9,CCN1CCN(c2nc3ccccc3nc2C(C#N)S(=O)(=O)c2ccc(C)cc2)CC1 (stereo unspecified),inactive
10,Cc1cc(C(c2ccc(C)o2)c2ccc(C)o2)c(O)c([N+](=O)[O-])c1,inactive
11,COc1ccccc1-n1cnnc1SC(C)C(=O)Nc1ccc(NC(C)=O)cc1 (stereo unspecified),inactive
12,O=C(/C=C\NCC(=O)c1ccccc1)c1ccc2ccccc2c1,"inconclusive: 29.1 µM [activator, single point]"
13,S=C(NCCc1ccccc1)Nc1ccccn1,"inconclusive: 16.4 µM [activator, partial curve]"
14,CCCCCC(=O)Nc1cccc(C2=NOC3(C2)C[C@H](C(N)=O)N(C(=O)CCCCC)C3)c1 (stereo partly specified),"inconclusive: 20.6 µM [inhibitor, single point]"
15,CC(C)(C)c1ccc(C2CC2C(=O)N/N=C\c2ccc[nH]2)cc1 (stereo unspecified),"inconclusive: 3.66 µM [inhibitor, partial curve]"
16,Cc1csc(NC(=O)c2cccn2C)n1,"inconclusive: 7.94 µM [activator, partial curve, poor fit]"
17,Cc1ccc(S(=O)(=O)N[C@H](C(=O)N2CCC(C(=O)N[C@@H](CC(=O)O)C(=O)O)CC2)C(C)C)cc1,inactive
18,CCc1c(-c2n[nH]c(=S)n2Cc2ccccc2)csc1C,inactive
19,Cc1ccc(OC(=O)COc2ccccc2C)cc1,inactive
20,C=C(C)COc1ccc(-c2[nH]ncc2-c2ccccc2)c(O)c1,inactive
21,CCOc1ccc(OCCNCc2ccc(OC(C)C(=O)N(C)C)c(OCC)c2)cc1 (stereo unspecified),"inconclusive: 4.61 µM [inhibitor, partial curve, poor fit]"
22,Cc1cc(C)cc(NC(=O)CSc2ncc(S(=O)(=O)c3ccccc3)c(=O)[nH]2)c1,"inconclusive: 29.1 µM [activator, single point]"
23,O=C(NCc1ccco1)c1cc(-c2cccc(Cl)c2)on1,"inconclusive: 18.4 µM [activator, partial curve]"

# Taken from above.
# Under Potency, CC(C)(C)c1ccc(C2CC2C(=O)N/N=C\c2ccc[nH]2)cc1 (stereo unspecified) has the entry inconclusive: 3.66 µM [inhibitor, partial curve]
# Under Potency, CCN1CCN(c2nc3ccccc3nc2C(C#N)S(=O)(=O)c2ccc(C)cc2)CC1 (stereo unspecified) has the entry inactive
# Under Potency, COc1cccc(NC(=O)C2CCCN2C(=O)Nc2ccccc2F)c1 (stereo unspecified) has the entry inconclusive: 4.11 µM [activator, partial curve, poor fit]

# — PubChem BioAssay AID504467 (National Center for Advancing Translational Sciences (NCATS), 2011)
